Assay results taken from patent publication US5502032 (dated 1996).

Experiment: solution-phase peptide synthesis; DEPCN/DIPEA; Boc-Val-N-carboxyanhydride
Settings: whole synthesis, scale 2 mmol

N,N-dimethylvaline-Val-N(CH3)-CH[CH(CH3)2]-CH(OCH3)-CH2-CO-phenylalaninamide
isolated mass: 0.46 g
